Drawing on patent US8062607B2, “Lens care methods and kits” (Novartis AG, priority 2006, dated 2011), this text covers staining of lenses for one compound.

A short description of the data set: Staining of contact lenses soaked in dye solutions. The following applies: all tested lenses; dye solution in Aquify MPS or PBS.

Some compounds share one wording; it may come from a single statement.

Turning to `CN(C)c1ccc(C(=C2C=CC(=[N+](C)C)C=C2)c2ccccc2)cc1` [Malachite Green], the staining of lenses entry is listed as “do not stain any tested lenses”.
